Assay results from the supplement of paper PMC12823440, “Inhibitors supercharge kinase turnover through native proteolytic circuits” (Nature, 2025).
Counter-ions that a name gives are not always drawn. The list shows a part of the results. Hit calls seldom repeat between salt and free forms of one compound.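 Kinases, fused to nanoluciferase, were expressed in K562 cells; luminescence was measured every 4 h from 2 to 18 h as percent of control (DMSO = 100%, positive control = 0%). A time point is decreased if signal falls significantly (2 sigma). Hits were called by the authors by a rule that is not shown; the count of time points alone does not decide it.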

Sequences of proteins named here, by UniProt entry; tags and fusion partners are left off. A change or cut given only in a name is not applied to a line headed by its entry.
UniProt P31152, whole entry: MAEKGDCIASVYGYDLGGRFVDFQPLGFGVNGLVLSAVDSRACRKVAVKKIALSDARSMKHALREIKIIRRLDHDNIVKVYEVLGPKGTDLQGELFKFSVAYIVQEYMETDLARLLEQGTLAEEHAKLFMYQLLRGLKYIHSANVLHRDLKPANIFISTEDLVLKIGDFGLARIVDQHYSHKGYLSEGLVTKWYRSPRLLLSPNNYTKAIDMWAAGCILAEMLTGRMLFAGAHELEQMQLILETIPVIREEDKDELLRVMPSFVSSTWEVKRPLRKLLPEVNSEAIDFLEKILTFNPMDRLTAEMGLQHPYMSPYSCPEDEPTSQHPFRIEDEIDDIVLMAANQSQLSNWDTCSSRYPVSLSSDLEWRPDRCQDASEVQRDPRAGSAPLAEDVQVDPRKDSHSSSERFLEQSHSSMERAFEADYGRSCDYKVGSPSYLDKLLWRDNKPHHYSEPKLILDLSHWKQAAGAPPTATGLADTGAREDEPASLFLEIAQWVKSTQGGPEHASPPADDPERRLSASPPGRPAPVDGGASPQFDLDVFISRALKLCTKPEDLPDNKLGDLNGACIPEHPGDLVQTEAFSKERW
UniProt O96013: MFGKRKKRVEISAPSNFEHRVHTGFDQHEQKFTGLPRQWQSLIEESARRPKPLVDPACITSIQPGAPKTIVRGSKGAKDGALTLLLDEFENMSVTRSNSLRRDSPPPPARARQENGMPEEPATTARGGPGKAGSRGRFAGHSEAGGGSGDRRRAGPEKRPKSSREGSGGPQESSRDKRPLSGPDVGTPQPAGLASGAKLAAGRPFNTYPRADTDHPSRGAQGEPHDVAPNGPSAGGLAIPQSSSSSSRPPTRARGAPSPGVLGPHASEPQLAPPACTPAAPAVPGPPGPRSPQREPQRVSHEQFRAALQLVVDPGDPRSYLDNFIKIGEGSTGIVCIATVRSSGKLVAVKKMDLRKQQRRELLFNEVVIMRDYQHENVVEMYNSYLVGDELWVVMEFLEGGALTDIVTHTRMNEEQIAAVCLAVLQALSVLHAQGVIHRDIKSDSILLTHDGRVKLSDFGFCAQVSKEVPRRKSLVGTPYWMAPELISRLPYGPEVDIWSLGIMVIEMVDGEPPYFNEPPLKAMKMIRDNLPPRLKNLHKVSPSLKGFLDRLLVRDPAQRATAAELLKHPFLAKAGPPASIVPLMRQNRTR
UniProt Q96KB5: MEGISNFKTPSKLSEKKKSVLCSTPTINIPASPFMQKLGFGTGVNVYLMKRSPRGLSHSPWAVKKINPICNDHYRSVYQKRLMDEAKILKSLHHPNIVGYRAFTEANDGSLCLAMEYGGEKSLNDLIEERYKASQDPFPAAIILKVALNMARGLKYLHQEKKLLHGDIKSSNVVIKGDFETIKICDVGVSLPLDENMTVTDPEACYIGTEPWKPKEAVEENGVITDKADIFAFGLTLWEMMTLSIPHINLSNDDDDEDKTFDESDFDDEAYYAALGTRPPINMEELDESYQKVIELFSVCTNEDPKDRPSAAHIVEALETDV
UniProt P09619, whole entry: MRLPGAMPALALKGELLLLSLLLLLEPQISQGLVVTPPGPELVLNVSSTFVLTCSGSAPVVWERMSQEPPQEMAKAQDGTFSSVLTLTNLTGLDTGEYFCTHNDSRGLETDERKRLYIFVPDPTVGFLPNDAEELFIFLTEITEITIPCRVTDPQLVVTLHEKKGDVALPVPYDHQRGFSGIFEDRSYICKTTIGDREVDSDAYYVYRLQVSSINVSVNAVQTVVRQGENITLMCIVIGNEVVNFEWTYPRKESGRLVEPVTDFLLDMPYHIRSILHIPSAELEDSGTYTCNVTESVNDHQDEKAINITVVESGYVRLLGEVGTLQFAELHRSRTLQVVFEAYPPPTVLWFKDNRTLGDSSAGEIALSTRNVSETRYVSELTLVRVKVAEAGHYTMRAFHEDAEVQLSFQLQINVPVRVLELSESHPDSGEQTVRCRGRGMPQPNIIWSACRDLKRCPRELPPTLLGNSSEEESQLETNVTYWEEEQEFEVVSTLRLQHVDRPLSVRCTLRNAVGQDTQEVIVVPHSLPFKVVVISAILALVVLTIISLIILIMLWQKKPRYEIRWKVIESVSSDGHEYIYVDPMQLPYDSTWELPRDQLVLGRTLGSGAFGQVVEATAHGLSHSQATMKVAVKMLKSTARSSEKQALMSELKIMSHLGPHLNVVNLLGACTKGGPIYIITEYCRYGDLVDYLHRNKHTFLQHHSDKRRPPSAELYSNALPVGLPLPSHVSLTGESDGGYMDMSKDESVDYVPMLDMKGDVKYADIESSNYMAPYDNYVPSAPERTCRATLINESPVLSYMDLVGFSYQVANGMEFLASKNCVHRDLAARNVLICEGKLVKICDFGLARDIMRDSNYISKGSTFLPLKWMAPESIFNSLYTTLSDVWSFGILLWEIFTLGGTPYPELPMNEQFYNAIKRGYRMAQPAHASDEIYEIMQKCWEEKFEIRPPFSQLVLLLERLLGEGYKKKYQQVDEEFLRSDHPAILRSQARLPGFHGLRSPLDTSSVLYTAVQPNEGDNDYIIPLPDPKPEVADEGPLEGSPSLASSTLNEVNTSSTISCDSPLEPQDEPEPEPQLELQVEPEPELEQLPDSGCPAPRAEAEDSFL
UniProt O15530: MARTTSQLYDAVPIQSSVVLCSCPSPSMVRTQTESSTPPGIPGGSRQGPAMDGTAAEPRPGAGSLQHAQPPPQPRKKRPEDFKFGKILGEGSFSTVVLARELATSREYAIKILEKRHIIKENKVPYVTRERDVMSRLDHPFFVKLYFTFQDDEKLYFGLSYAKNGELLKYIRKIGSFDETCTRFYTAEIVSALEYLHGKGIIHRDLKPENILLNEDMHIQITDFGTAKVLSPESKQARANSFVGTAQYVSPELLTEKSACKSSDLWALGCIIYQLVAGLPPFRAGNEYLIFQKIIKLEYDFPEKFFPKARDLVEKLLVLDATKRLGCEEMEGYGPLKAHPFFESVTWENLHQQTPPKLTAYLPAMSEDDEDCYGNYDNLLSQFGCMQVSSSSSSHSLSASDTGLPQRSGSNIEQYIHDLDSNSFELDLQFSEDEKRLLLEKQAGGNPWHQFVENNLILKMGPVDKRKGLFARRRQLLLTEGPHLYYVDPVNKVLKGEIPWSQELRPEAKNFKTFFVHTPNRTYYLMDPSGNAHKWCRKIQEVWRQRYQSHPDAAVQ
UniProt Q9UBF8: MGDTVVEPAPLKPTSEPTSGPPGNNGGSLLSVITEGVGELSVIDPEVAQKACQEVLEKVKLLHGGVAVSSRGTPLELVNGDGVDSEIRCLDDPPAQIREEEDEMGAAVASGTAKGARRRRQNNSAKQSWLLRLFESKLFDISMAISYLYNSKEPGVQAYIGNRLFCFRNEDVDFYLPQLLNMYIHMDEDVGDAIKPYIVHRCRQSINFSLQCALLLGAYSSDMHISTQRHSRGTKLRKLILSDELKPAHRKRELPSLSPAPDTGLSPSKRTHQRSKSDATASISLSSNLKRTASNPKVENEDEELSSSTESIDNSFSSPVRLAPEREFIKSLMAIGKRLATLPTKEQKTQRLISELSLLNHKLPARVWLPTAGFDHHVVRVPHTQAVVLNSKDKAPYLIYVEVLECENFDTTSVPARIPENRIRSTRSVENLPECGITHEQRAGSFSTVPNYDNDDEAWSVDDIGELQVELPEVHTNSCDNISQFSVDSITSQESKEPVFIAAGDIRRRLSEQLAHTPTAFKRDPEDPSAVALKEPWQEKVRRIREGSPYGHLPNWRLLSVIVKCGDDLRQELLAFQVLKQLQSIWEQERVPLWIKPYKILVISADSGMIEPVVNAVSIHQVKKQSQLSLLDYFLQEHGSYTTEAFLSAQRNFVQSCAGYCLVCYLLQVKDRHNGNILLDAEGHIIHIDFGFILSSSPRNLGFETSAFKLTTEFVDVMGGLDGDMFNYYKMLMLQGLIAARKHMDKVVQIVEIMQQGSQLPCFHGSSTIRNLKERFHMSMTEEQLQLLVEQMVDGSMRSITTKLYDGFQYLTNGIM
UniProt Q13131: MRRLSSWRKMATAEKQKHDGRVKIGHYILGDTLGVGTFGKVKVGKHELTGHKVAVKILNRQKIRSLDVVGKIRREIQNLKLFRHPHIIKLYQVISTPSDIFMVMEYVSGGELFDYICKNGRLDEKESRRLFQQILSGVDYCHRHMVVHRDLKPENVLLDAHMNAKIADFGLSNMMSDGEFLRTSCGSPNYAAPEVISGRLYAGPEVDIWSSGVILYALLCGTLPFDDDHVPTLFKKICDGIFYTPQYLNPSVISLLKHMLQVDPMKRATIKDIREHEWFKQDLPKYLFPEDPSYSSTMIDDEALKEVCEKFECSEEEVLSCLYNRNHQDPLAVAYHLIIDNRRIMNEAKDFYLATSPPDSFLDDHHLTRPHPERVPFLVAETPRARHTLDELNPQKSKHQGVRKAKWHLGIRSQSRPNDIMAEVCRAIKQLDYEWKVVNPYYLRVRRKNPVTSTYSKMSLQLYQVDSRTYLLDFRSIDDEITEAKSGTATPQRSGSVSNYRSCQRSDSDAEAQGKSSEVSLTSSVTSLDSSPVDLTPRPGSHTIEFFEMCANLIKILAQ
UniProt Q05397, whole entry, looked up: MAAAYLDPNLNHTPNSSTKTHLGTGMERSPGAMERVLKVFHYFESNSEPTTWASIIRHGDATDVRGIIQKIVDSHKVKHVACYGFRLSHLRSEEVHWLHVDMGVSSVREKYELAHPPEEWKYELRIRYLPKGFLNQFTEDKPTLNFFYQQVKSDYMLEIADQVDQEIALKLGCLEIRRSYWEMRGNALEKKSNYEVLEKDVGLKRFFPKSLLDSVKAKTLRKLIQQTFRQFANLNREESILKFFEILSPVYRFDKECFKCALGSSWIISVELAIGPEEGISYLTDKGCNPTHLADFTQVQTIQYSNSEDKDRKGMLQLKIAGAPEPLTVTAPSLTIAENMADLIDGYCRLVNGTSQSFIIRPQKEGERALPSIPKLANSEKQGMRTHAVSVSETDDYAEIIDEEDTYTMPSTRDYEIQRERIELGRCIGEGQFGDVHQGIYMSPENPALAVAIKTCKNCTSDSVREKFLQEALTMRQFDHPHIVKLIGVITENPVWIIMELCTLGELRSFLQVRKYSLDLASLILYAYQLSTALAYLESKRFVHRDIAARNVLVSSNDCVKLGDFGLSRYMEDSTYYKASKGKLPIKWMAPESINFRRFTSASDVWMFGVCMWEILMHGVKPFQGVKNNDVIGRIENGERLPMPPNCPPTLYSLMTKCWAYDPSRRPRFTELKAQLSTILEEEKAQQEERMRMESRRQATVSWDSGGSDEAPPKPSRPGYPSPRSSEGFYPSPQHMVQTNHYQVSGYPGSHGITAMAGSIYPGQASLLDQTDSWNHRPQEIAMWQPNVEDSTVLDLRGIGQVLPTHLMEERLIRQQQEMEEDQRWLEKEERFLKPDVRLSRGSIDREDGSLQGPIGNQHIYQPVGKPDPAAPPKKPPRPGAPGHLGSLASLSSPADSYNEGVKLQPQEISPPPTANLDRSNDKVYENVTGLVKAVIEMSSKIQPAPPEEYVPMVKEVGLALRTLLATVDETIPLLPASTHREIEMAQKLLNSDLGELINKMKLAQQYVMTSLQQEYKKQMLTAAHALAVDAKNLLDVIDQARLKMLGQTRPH
UniProt Q14289, whole entry, looked up: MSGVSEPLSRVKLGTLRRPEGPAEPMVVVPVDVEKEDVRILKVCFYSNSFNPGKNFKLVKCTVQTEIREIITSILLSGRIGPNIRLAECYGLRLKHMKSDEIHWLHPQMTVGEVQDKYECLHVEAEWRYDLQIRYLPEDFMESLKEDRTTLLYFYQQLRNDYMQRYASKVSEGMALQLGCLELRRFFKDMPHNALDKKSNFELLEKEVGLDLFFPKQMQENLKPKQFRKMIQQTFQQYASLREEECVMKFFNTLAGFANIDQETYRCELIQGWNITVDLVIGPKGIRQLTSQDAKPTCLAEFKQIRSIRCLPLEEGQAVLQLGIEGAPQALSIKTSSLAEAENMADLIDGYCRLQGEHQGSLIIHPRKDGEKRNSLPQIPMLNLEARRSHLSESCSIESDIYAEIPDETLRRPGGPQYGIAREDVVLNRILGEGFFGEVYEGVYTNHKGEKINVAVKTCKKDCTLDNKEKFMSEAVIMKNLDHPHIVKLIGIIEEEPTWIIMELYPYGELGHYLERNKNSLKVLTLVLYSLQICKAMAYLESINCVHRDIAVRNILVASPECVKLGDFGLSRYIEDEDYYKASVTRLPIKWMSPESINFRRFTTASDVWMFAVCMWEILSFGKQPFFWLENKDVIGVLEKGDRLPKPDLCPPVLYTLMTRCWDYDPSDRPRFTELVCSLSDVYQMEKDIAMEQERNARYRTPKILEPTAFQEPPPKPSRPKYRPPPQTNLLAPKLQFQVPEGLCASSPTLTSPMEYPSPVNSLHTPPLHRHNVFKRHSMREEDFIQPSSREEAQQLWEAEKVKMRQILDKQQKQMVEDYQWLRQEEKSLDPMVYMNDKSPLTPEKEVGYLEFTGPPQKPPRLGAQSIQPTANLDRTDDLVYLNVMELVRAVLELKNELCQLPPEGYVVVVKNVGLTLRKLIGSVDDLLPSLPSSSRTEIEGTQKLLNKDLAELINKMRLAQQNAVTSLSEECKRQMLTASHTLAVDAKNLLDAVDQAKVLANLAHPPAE

Legend:
Test in all cases: kinase-Nluc reporter destabilization hit call (1 = scored as downregulated) (binary); higher = compound decreases kinase abundance
Settings in all cases: K562, 2-18 h
[1] = molecular target: MAPK1 (UniProt P28482)
[2] = molecular target: MAPK4 (UniProt P31152)
[3] = molecular target: MAPKAPK2 (UniProt P49137)
[4] = molecular target: MKNK1 (UniProt Q9BUB5)
[5] = molecular target: NTRK2 (UniProt Q16620)
[6] = molecular target: NTRK3 (UniProt Q16288)
[7] = molecular target: PAK4 (UniProt O96013)
[8] = molecular target: PBK (UniProt Q96KB5)
[9] = molecular target: PDGFRB (UniProt P09619)
[10] = molecular target: PDK1 (UniProt Q15118)
[11] = molecular target: PDPK1 (UniProt O15530)
[12] = molecular target: PIK4CA (UniProt P42356)
[13] = molecular target: PIK4CB (UniProt Q9UBF8)
[14] = molecular target: PLK1 (UniProt P53350)
[15] = molecular target: PRKAA1 (UniProt Q13131)
[16] = molecular target: PRKCA (UniProt P17252)
[17] = molecular target: PTK2 (UniProt Q05397)
[18] = molecular target: PTK2B (UniProt Q14289)
[19] = molecular target: RAF1 (UniProt P04049)
[20] = molecular target: RAF1_S257L (clone: RAF1_mut) (UniProt P04049)

Measured: kinase-Nluc reporter destabilization hit call

Cc1[nH]c(/C=C2\C(=O)Nc3ccc(F)cc32)c(C)c1C(=O)NCCN1CCCC1 [Toceranib]
inactive: [1]; 2 µM 0 | [2]; 2 µM 0 | [3]; 2 µM 0 | [4]; 2 µM 0 | [5]; 2 µM 0 | [6]; 2 µM 0 | [7]; 2 µM 0 | [8]; 2 µM 0 | [9]; 2 µM 0 | [10]; 2 µM 0 | [11]; 2 µM 0 | [12]; 2 µM 0 | [13]; 2 µM 0 | [14]; 2 µM 0 | [15]; 2 µM 0 | [16]; 2 µM 0 | [17]; 2 µM 0 | [18]; 2 µM 0 | [19]; 2 µM 0 | [20]; 2 µM 0

COc1ccnc(C[S+]([O-])c2nc3cc(-n4cccc4)ccc3[nH]2)c1C (stereo not given) [Ilaprazole]
inactive: [1]; 10 µM 0 | [2]; 10 µM 0 | [3]; 10 µM 0 | [4]; 10 µM 0 | [5]; 10 µM 0 | [6]; 10 µM 0 | [7]; 10 µM 0 | [8]; 10 µM 0 | [9]; 10 µM 0 | [10]; 10 µM 0 | [11]; 10 µM 0 | [12]; 10 µM 0 | [13]; 10 µM 0 | [14]; 10 µM 0 | [15]; 10 µM 0 | [16]; 10 µM 0 | [17]; 10 µM 0 | [18]; 10 µM 0 | [19]; 10 µM 0 | [20]; 10 µM 0

CN(C)C(=O)c1cc2cnc(Nc3ccc(N4CCNCC4)cn3)nc2n1C1CCCC1 [Ribociclib succinate hydrate]
inactive: [1]; 2.5 µM 0 | [2]; 2.5 µM 0 | [3]; 2.5 µM 0 | [4]; 2.5 µM 0 | [5]; 2.5 µM 0 | [6]; 2.5 µM 0 | [7]; 2.5 µM 0 | [8]; 2.5 µM 0 | [9]; 2.5 µM 0 | [10]; 2.5 µM 0 | [11]; 2.5 µM 0 | [12]; 2.5 µM 0 | [13]; 2.5 µM 0 | [14]; 2.5 µM 0 | [15]; 2.5 µM 0 | [16]; 2.5 µM 0 | [17]; 2.5 µM 0 | [18]; 2.5 µM 0 | [19]; 2.5 µM 0 | [20]; 2.5 µM 0

O=C(Nc1ccncc1)Nc1ccc(-c2nc(N3CCOCC3)nc(N3C4CCC3COC4)n2)cc1 [PKI-179 (hydrochloride)]
inactive: [1]; 2.5 µM 0 | [2]; 2.5 µM 0 | [3]; 2.5 µM 0 | [4]; 2.5 µM 0 | [5]; 2.5 µM 0 | [6]; 2.5 µM 0 | [7]; 2.5 µM 0 | [8]; 2.5 µM 0 | [9]; 2.5 µM 0 | [10]; 2.5 µM 0 | [11]; 2.5 µM 0 | [12]; 2.5 µM 0 | [13]; 2.5 µM 0 | [14]; 2.5 µM 0 | [15]; 2.5 µM 0 | [16]; 2.5 µM 0 | [17]; 2.5 µM 0 | [18]; 2.5 µM 0 | [19]; 2.5 µM 0 | [20]; 2.5 µM 0

CC(=O)Nc1cccc(-n2c(=O)n(C3CC3)c(=O)c3c(Nc4ccc(I)cc4F)n(C)c(=O)c(C)c32)c1 [Trametinib (DMSO solvate)]
inactive: [1]; 10 µM 0 | [2]; 10 µM 0 | [3]; 10 µM 0 | [4]; 10 µM 0 | [5]; 10 µM 0 | [6]; 10 µM 0 | [7]; 10 µM 0 | [8]; 10 µM 0 | [9]; 10 µM 0 | [10]; 10 µM 0 | [11]; 10 µM 0 | [12]; 10 µM 0 | [13]; 10 µM 0 | [14]; 10 µM 0 | [15]; 10 µM 0 | [16]; 10 µM 0 | [17]; 10 µM 0 | [18]; 10 µM 0 | [19]; 10 µM 0 | [20]; 10 µM 0

Copied from the entries so far, two compounds:
O=C(Nc1ccncc1)Nc1ccc(-c2nc(N3CCOCC3)nc(N3C4CCC3COC4)n2)cc1 [PKI-179 (hydrochloride)]
inactive: [1]; 2.5 µM 0 | [2]; 2.5 µM 0 | [3]; 2.5 µM 0 | [4]; 2.5 µM 0 | [5]; 2.5 µM 0 | [6]; 2.5 µM 0 | [7]; 2.5 µM 0 | [8]; 2.5 µM 0 | [9]; 2.5 µM 0 | [10]; 2.5 µM 0 | [11]; 2.5 µM 0 | [12]; 2.5 µM 0 | [13]; 2.5 µM 0 | [14]; 2.5 µM 0 | [15]; 2.5 µM 0 | [16]; 2.5 µM 0 | [17]; 2.5 µM 0 | [18]; 2.5 µM 0 | [19]; 2.5 µM 0 | [20]; 2.5 µM 0

CC(=O)Nc1cccc(-n2c(=O)n(C3CC3)c(=O)c3c(Nc4ccc(I)cc4F)n(C)c(=O)c(C)c32)c1 [Trametinib (DMSO solvate)]
inactive: [1]; 10 µM 0 | [2]; 10 µM 0 | [3]; 10 µM 0 | [4]; 10 µM 0 | [5]; 10 µM 0 | [6]; 10 µM 0 | [7]; 10 µM 0 | [8]; 10 µM 0 | [9]; 10 µM 0 | [10]; 10 µM 0 | [11]; 10 µM 0 | [12]; 10 µM 0 | [13]; 10 µM 0 | [14]; 10 µM 0 | [15]; 10 µM 0 | [16]; 10 µM 0 | [17]; 10 µM 0 | [18]; 10 µM 0 | [19]; 10 µM 0 | [20]; 10 µM 0

Later entries.

C#Cc1cccc(Nc2ncnc3cc(OCCOC)c(OCCO)cc23)c1 [Desmethyl Erlotinib]
inactive: [1]; 10 µM 0 | [2]; 10 µM 0 | [3]; 10 µM 0 | [4]; 10 µM 0 | [5]; 10 µM 0 | [6]; 10 µM 0 | [7]; 10 µM 0 | [8]; 10 µM 0 | [9]; 10 µM 0 | [10]; 10 µM 0 | [11]; 10 µM 0 | [12]; 10 µM 0 | [13]; 10 µM 0 | [14]; 10 µM 0 | [15]; 10 µM 0 | [16]; 10 µM 0 | [17]; 10 µM 0 | [18]; 10 µM 0 | [19]; 10 µM 0 | [20]; 10 µM 0

C#Cc1cccc(Nc2ncnc3cc(OCCOC)c(OCCOC)cc23)c1 [Erlotinib (Hydrochloride)]
inactive: [1]; 10 µM 0 | [2]; 10 µM 0 | [3]; 10 µM 0 | [4]; 10 µM 0 | [5]; 10 µM 0 | [6]; 10 µM 0 | [7]; 10 µM 0 | [8]; 10 µM 0 | [9]; 10 µM 0 | [10]; 10 µM 0 | [11]; 10 µM 0 | [12]; 10 µM 0 | [13]; 10 µM 0 | [14]; 10 µM 0 | [15]; 10 µM 0 | [16]; 10 µM 0 | [17]; 10 µM 0 | [18]; 10 µM 0 | [19]; 10 µM 0 | [20]; 10 µM 0

CC(=O)N[C@H](Cc1ccc(O)cc1)C(=O)N[C@H](CCCN=C(N)N)C(=O)N[C@H](Cc1ccccc1)C(N)=O
inactive: [1]; 10 µM 0 | [2]; 10 µM 0 | [3]; 10 µM 0 | [4]; 10 µM 0 | [5]; 10 µM 0 | [6]; 10 µM 0 | [7]; 10 µM 0 | [8]; 10 µM 0 | [9]; 10 µM 0 | [10]; 10 µM 0 | [11]; 10 µM 0 | [12]; 10 µM 0 | [13]; 10 µM 0 | [14]; 10 µM 0 | [15]; 10 µM 0 | [16]; 10 µM 0 | [17]; 10 µM 0 | [18]; 10 µM 0 | [19]; 10 µM 0 | [20]; 10 µM 0

CCS(=O)(=O)N1CCN(c2ccc(Nc3ncc(C(N)=O)c(NC4CC4)n3)cc2)CC1 [Cerdulatinib (hydrochloride)]
inactive: [1]; 10 µM 0 | [2]; 10 µM 0 | [3]; 10 µM 0 | [4]; 10 µM 0 | [5]; 10 µM 0 | [6]; 10 µM 0 | [7]; 10 µM 0 | [8]; 10 µM 0 | [9]; 10 µM 0 | [10]; 10 µM 0 | [11]; 10 µM 0 | [12]; 10 µM 0 | [13]; 10 µM 0 | [14]; 10 µM 0 | [15]; 10 µM 0 | [16]; 10 µM 0 | [17]; 10 µM 0 | [18]; 10 µM 0 | [19]; 10 µM 0 | [20]; 10 µM 0
